Source: PMC8522691
No constants are given. Whether binding was seen depends on the method and setting. Some results given as binding are weak or reduced against the parent protein; the word gives no strength.

Protein sequences, listed by entry. Tags and fused reporters are not part of them. Lines headed by an entry give the natural chain unless they say otherwise; changes in a name come on top. Residues count along the entry.
UniProt P21513: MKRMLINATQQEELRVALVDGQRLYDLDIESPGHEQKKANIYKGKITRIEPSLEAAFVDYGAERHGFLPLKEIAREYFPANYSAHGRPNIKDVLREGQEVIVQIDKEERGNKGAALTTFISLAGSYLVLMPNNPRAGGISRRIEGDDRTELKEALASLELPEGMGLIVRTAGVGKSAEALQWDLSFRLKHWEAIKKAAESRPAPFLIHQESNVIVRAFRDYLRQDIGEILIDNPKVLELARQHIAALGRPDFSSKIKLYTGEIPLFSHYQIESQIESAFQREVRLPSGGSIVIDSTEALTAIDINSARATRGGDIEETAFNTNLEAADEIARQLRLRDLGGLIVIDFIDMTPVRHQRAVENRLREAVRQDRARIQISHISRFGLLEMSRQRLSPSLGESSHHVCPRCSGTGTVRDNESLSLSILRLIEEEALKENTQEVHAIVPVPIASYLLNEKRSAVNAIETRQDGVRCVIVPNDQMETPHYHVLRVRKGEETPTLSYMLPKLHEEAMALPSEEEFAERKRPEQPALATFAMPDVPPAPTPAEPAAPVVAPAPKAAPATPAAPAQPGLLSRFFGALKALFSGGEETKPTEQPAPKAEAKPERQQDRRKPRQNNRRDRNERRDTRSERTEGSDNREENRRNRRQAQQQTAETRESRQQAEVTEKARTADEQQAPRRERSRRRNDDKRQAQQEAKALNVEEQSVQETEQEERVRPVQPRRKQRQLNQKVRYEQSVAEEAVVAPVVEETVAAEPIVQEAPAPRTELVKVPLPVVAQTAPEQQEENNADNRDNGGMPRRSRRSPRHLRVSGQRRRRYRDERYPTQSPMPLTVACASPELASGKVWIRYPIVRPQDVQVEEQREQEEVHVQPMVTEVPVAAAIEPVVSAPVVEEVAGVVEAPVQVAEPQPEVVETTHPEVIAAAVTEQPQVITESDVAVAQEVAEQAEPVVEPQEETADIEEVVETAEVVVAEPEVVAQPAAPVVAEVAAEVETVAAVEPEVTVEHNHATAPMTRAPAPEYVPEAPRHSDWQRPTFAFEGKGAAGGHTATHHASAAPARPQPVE
RNase E 1-850 (of the truncated degradosome): residues 1-850 of P21513
UniProt P0A6P9: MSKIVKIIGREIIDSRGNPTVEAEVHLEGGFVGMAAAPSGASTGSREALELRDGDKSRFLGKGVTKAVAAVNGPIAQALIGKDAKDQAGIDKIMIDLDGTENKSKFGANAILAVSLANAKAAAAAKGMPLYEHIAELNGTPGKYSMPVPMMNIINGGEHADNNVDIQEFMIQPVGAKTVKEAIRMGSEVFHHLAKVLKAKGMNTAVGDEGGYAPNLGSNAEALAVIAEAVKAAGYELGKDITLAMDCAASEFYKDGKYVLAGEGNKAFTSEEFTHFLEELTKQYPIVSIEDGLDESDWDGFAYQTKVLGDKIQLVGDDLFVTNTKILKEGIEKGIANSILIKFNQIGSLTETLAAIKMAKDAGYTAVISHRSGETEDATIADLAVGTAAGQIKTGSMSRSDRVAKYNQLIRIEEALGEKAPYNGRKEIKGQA

B1: PNPase (of the full degradosome) (enzyme, UniProt P05055 1-711)
chain: MLNPIVRKFQYGQHTVTLETGMMARQATAAVMVSMDDTAVFVTVVGQKKAKPGQDFFPLTVNYQERTYAAGRIPGSFFRREGRPSEGETLIARLIDRPIRPLFPEGFVNEVQVIATVVSVNPQVNPDIVAMIGASAALSLSGIPFNGPIGAARVGYINDQYVLNPTQDELKESKLDLVVAGTEAAVLMVESEAQLLSEDQMLGAVVFGHEQQQVVIQNINELVKEAGKPRWDWQPEPVNEALNARVAALAEARLSDAYRITDKQERYAQVDVIKSETIATLLAEDETLDENELGEILHAIEKNVVRSRVLAGEPRIDGREKDMIRGLDVRTGVLPRTHGSALFTRGETQALVTATLGTARDAQVLDELMGERTDTFLFHYNFPPYSVGETGMVGSPKRREIGHGRLAKRGVLAVMPDMDKFPYTVRVVSEITESNGSSSMASVCGASLALMDAGVPIKAAVAGIAMGLVKEGDNYVVLSDILGDEDHLGDMDFKVAGSRDGISALQMDIKIEGITKEIMQVALNQAKGARLHILGVMEQAINAPRGDISEFAPRIHTIKINPDKIKDVIGKGGSVIRALTEETGTTIEIEDDGTVKIAATDGEKAKHAIRRIEEITAEIEVGRVYTGKVTRIVDFGAFVAIGGGKEGLVHISQIADKRVEKVTDYLQMGQEVPVKVLEVDRQGRIRLSIKEATEQSQPAAAPEAPAAEQGE

How the values were obtained:
[1] = target: RNase E 1-850 (of the truncated degradosome) (Escherichia coli) (UniProt P21513); assay: co-purification (nickel affinity column, cation exchange, size exclusion); lysate of E. coli ENS134-10 co-expressing RNase E 1-850, RhlB and enolase on a nickel-charged HiTrap Chelating column, washed with 1 M NaCl, 100 mM imidazole, 0.02% beta-DDM; then SP HP column and Superose 6 10/300 in 50 mM HEPES pH 7.5, 400 mM NaCl, 100 mM KCl, 5 mM DTT, 0.02% beta-DDM
[2] = target: RNase E 1-1061 (chromosomally strep-tagged RNase E of the full degradosome) (Escherichia coli (endogenous in strain NCM3416)) (UniProt P21513); assay: co-purification (Strep affinity column, heparin column, size exclusion); lysate of E. coli NCM3416 with chromosomally strep-tagged RNase E on a HiTrap Strep column, washed with 1 M NaCl, 100 mM KCl, 0.02% beta-DDM; then HiTrap Heparin and Superose 6 10/300 in 50 mM HEPES pH 7.5, 400 mM NaCl, 100 mM KCl, 5 mM DTT, 0.02% beta-DDM

| Molecule | binding [1] | binding [2] |
| --- | --- | --- |
| full-length enolase (of the truncated degradosome) (from UniProt P0A6P9 1-432) (enzyme) | binds | – |
| enolase (of the full degradosome) (from UniProt P0A6P9 1-432) (enzyme) | – | binds |
| B1 | – | binds |
